# PubChem BioAssay AID652243 – Drosophila RNAi Screening Center, 2013
# Assay: 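Knock-downs that decrease or increase androgen receptor reporter signal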 (primary screen)
# Cell system: Drosophila S2R+ cells
# Knock-down reagent: long dsRNA against Drosophila genes
# Timing: 72 h (48 h, then 24 h hormone)
# Treatment: synthetic androgen R1881 at 10 nM for 24 h
# Detection: 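Per-well raw luminescence of the androgen-driven firefly reporter and of the Renilla control, two replicates each, without normalisation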
# Direction: firefly reporter light: higher = more light from androgen-responsive reporter; Renilla control light: higher = more constitutive control signal (cell number, transfection)
# Rule for the call: 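Hit when the log firefly-to-Renilla ratio dropped or increased by a fixed fold versus the mean of GFP or LacZ controls across duplicate plates; lowering cut given as 1.5 and as 3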
# Meaning of the calls: active = hit: reporter lowered or raised; inactive = no hit
# The deposit covers about 24,000 reagents; this is a random part of those that have a named target and a result. Of all reagents, 246 (1%) got an active call. 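Plates not normalised; calls are printed but the firefly/Renilla ratio behind them is not deposited; fold cut for lowering reported inconsistently.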 Raw values are not corrected between plates. A plus sign joins genes that one reagent is predicted to hit. Not given: the amount of reagent.
predicted target,DRSC id,"firefly reporter light, replicate 1","firefly reporter light, replicate 2","Renilla control light, replicate 1","Renilla control light, replicate 2",outcome
Pp2C1,DRSC23287,1.06e6,9.99e5,1.22e6,1.25e6,inactive
Pp2C1,DRSC28091,4.95e5,6.24e5,1.54e6,1.45e6,inactive
Pp2C1,DRSC36737,,,,,inactive
CG5565,DRSC00690,1.12e5,89558,9.11e5,8.19e5,inactive
LRR,DRSC06444,2.52e5,2.59e5,1.89e6,1.31e6,inactive
LRR,DRSC24790,8.84e5,1.16e6,8.09e5,8.36e5,inactive
CG16957,DRSC02545,2.51e5,2.78e5,1.67e6,1.92e6,inactive
Ptp4E,DRSC18701,50087,80985,5.60e5,5.17e5,inactive
Ptp4E,DRSC36632,,,,,inactive
Ptp4E,DRSC36633,,,,,inactive
CG13130 (retired record) + bib,DRSC24888,5.39e5,7.45e5,6.09e5,7.29e5,inactive
Gr9a,DRSC22506,5.08e5,9.32e5,1.31e6,2.24e6,inactive
IntS4,DRSC17810,2.61e5,2.34e5,1.04e6,1.10e6,inactive
Ir54a + sub,DRSC06459,81190,67718,1.69e6,1.69e6,inactive
Archease,DRSC16025,3.33e5,3.24e5,3.20e6,3.45e6,inactive
Rab30,DRSC03137,1.48e5,1.38e5,1.97e6,1.83e6,inactive
Rab30,DRSC23953,2.60e5,4.28e5,4.84e5,5.94e5,inactive
mkg-p,DRSC10777,8.25e5,7.59e5,7.66e5,1.16e6,inactive
Dhc64C,DRSC08656,6.87e5,7.86e5,1.35e6,1.40e6,inactive
Dhc64C,DRSC25497,3.69e5,2.31e5,4.55e5,4.89e5,inactive
CG9777,DRSC20208,2.18e5,2.47e5,3.06e6,2.68e6,inactive
Idgf1,DRSC03349,1.22e6,1.09e6,1.83e6,2.05e6,inactive
Idgf1,DRSC26045,2.77e5,3.14e5,7.77e5,7.32e5,inactive
Grl36b,DRSC01627,1.76e5,2.81e5,5.02e5,5.86e5,inactive
Acbp5,DRSC10548,2.78e5,2.26e5,2.78e6,2.61e6,inactive
Uro,DRSC03469,2.17e5,2.04e5,1.77e6,1.56e6,inactive
brn,DRSC18746,1.05e5,75493,6.86e5,6.72e5,inactive
CG30325,DRSC05685,1.06e5,1.48e5,3.02e5,3.89e5,inactive
yellow-g2,DRSC08338,52057,65307,8.92e5,8.40e5,inactive
CG32117,DRSC21652,9.42e5,8.77e5,2.39e6,2.14e6,inactive
CG12713,DRSC09900,40628,44173,5.83e5,4.43e5,inactive
CG12713,DRSC24697,9.67e5,9.54e5,9.73e5,9.97e5,inactive
BicC,DRSC02005,1.50e5,1.44e5,1.93e6,2.42e6,inactive
BicC,DRSC29676,4.31e5,4.83e5,9.61e5,9.61e5,inactive
Ubr3,DRSC17987,30451,44755,4.69e5,3.63e5,inactive
Ubr3,DRSC17997,2.53e5,1.88e5,2.79e6,2.01e6,inactive
Ubr3,DRSC27473,6.19e5,4.81e5,9.18e5,8.92e5,inactive
Ubr3,DRSC29072,4.88e5,5.60e5,1.32e6,1.24e6,inactive
CG10339,DRSC04065,2.23e5,3.02e5,1.46e6,1.57e6,inactive
CG42673,DRSC08989,1.81e5,1.77e5,4.98e5,4.47e5,inactive
CG42673,DRSC08991,11054,11109,42250,47330,inactive
CG42673,DRSC10177,2.10e5,2.17e5,1.74e6,1.56e6,inactive
CG42673,DRSC10264,3.45e5,3.12e5,2.21e6,2.04e6,inactive
CG42673,DRSC10353,3.42e5,2.83e5,3.67e6,2.94e6,inactive
CG42673,DRSC10354,3.95e5,3.04e5,2.87e6,2.25e6,inactive
CG42673,DRSC25788,4.24e5,3.43e5,8.76e5,7.06e5,inactive
